Results deposited as PubChem BioAssay AID652243 (Drosophila RNAi Screening Center, 2013)

Test: 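Knock-downs that decrease or increase androgen receptor reporter signal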 (primary screen)
Cells: Drosophila S2R+ cells
Reagent: long dsRNA against Drosophila genes
Time to read-out: 72 h (48 h, then 24 h hormone)
Challenge: synthetic androgen R1881 at 10 nM for 24 h
Detection: 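Per-well raw luminescence of the androgen-driven firefly reporter and of the Renilla control, two replicates each, without normalisation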
Direction: firefly reporter light: higher = more light from androgen-responsive reporter; Renilla control light: higher = more constitutive control signal (cell number, transfection)
Active means: 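Hit when the log firefly-to-Renilla ratio dropped or increased by a fixed fold versus the mean of GFP or LacZ controls across duplicate plates; lowering cut given as 1.5 and as 3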
Calls: active = hit: reporter lowered or raised; inactive = no hit
In all, the deposit lists about 24,000 reagents; below is a random part of those that have a named target and a result. Of all reagents, 246 (1%) are marked active. 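Plates not normalised; calls are printed but the firefly/Renilla ratio behind them is not deposited; fold cut for lowering reported inconsistently.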 Raw values are not corrected between plates. A number with no mark means an inactive call. A plus sign joins genes that one reagent is predicted to hit. Reagent sequences are not shown. The record does not give: the amount of reagent.

Evi5 [DRSC19421]
- firefly reporter light, replicate 1: 2.26e5
- firefly reporter light, replicate 2: 3.45e5
- Renilla control light, replicate 1: 3.04e6
- Renilla control light, replicate 2: 2.90e6

Evi5 [DRSC27334]
- firefly reporter light, replicate 1: 1.64e5
- firefly reporter light, replicate 2: 1.76e5
- Renilla control light, replicate 1: 5.27e5
- Renilla control light, replicate 2: 3.59e5

Slip1 [DRSC17146]
- firefly reporter light, replicate 1: 1.38e5
- firefly reporter light, replicate 2: 1.29e5
- Renilla control light, replicate 1: 9.06e5
- Renilla control light, replicate 2: 5.39e5

CG5866 [DRSC15900]
- firefly reporter light, replicate 1: 3.78e5
- firefly reporter light, replicate 2: 4.02e5
- Renilla control light, replicate 1: 1.59e6
- Renilla control light, replicate 2: 1.62e6

Gem3 [DRSC11144]
- firefly reporter light, replicate 1: 2.03e5
- firefly reporter light, replicate 2: 1.95e5
- Renilla control light, replicate 1: 2.11e6
- Renilla control light, replicate 2: 1.88e6

CG6621 [DRSC16076]
- firefly reporter light, replicate 1: 36623
- firefly reporter light, replicate 2: 59865
- Renilla control light, replicate 1: 2.65e5
- Renilla control light, replicate 2: 3.86e5

CG6621 [DRSC26979]
- firefly reporter light, replicate 1: 3.61e5 (active)
- firefly reporter light, replicate 2: 3.33e5
- Renilla control light, replicate 1: 1.01e6
- Renilla control light, replicate 2: 1.09e6

2 of these entries, reformatted:
predicted target	dsRNA	firefly reporter light, replicate 1	firefly reporter light, replicate 2	Renilla control light, replicate 1	Renilla control light, replicate 2
CG6621	DRSC16076	36623	59865	2.65e5	3.86e5
CG6621	DRSC26979	3.61e5 (active)	3.33e5	1.01e6	1.09e6

Next results:
Tsp26A [DRSC03135]
- firefly reporter light, replicate 1: 2.88e5
- firefly reporter light, replicate 2: 1.84e5
- Renilla control light, replicate 1: 2.70e6
- Renilla control light, replicate 2: 1.82e6

Hsp60A [DRSC20254]
- firefly reporter light, replicate 1: 1.46e5
- firefly reporter light, replicate 2: 1.16e5
- Renilla control light, replicate 1: 1.11e6
- Renilla control light, replicate 2: 1.05e6

Gem4b + Gem4c + Glos [DRSC18244]
- firefly reporter light, replicate 1: 2.89e5
- firefly reporter light, replicate 2: 2.72e5
- Renilla control light, replicate 1: 3.50e6
- Renilla control light, replicate 2: 3.44e6

CG13551 [DRSC21847]
- firefly reporter light, replicate 1: 5.90e5
- firefly reporter light, replicate 2: 4.79e5
- Renilla control light, replicate 1: 1.03e6
- Renilla control light, replicate 2: 8.03e5

CG2812 [DRSC04319]
- firefly reporter light, replicate 1: 2.25e5
- firefly reporter light, replicate 2: 2.28e5
- Renilla control light, replicate 1: 1.21e6
- Renilla control light, replicate 2: 8.76e5

CG2812 [DRSC28384]
- firefly reporter light, replicate 1: 4.63e5
- firefly reporter light, replicate 2: 5.08e5
- Renilla control light, replicate 1: 1.20e6
- Renilla control light, replicate 2: 1.80e6
